# Measured values as given in PubChem BioAssay AID493014 (National Center for Advancing Translational Sciences (NCATS), 2011).
# Hit rate of the full screen: of about 340,000 compounds, about 170 (0.05%) were called active. Inconclusive means that the source gave no clear call. Such entries were picked first, then a sample of the others. The call rests on the fitted dose curve; in most records, active means well fitted inhibition curve with a large enough effect in the signal ratio, with a control signal flat (not every such curve was filed as active); inconclusive means small, poorly fitted or top-dose-only effect, or effect the other way, or a change in a side signal; inactive means flat fitted curve, though single readings scatter; the % refers to the signal ratio. A potency beside an inconclusive call is a rough fit, not a confirmed value.
# Assay: qHTS Assay to Find Inhibitors of Chronic Active B-Cell Receptor Signaling;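 on activity change, negative = inhibition: plate controls were basal doxycycline-induced cells for no effect and cells given 10 µM MG132 for full effect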
# Details: ABC-DLBCL IkBa-CBG/CBR reporter, luminescence ratio (green luciferase fused to IkBa over red control in TMD8 lymphoma cells), 4 h; activity change, negative = inhibition: at 46.1 µM (top of the series)
# How it was run: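 Concentration-response series (up to 46 uM) were applied to TMD8 dual-reporter cells for 4 h at 37C with doxycycline. Green/red ratio, after filter-overlap correction, defined %Activity; red signal alone was normalised to basal cells and zero luminescence.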
# Potency means the concentration at half of the fitted maximal effect.
SMILES,"activity change, negative = inhibition",Potency
COC(=O)c1ccccc1Nc1ccccc1,inactive,–
CN(C)CCCN1c2ccccc2Sc2ccccc21,–,"inconclusive: 25.9 µM [falling, single point]"
N#CCc1nc(CSc2nc3ccccc3s2)cs1,inconclusive: 7.83%,–
O=C(Nc1ccc(Nc2ccccc2)cc1)c1c(F)c(F)c(F)c(F)c1F,–,"inconclusive: 1.78 µM [falling, full curve]"
CCOC(=O)C1=C(O)C(=O)NC(c2ccccc2)=C(OCC)C1,inconclusive: -4.34%,–
COc1cc2ccccc2cc1C(=O)N(CCN(C)C)c1nc2c(F)cccc2s1,–,"inconclusive: 25.1 µM [falling, single point]"
Cc1cc(N/N=C/c2cccc(Cl)c2)nc(NCc2ccccc2)n1,inconclusive: 3.02%,–
O=C(OCC(=O)N1CCCC1=O)c1cc(S(=O)(=O)N2CCOCC2)ccc1F,inconclusive: 0.65%,–
O=C(NCc1ccccc1C(F)(F)F)C1CC(c2cccc(F)c2)=NO1 (centres undefined),–,"inconclusive: 7.94 µM [falling, partial curve]"
NC1=NC(=O)/C(=C/c2ccccc2OCC(=O)Nc2ccc(F)cc2)S1,inactive,–
O=C(Nc1ccc(N2CCN(C(=O)c3ccc(Cl)cc3)CC2)cc1)c1cc2ccccc2o1,inactive,–
COc1ccc(N2CCN(C(=O)c3cn(Cc4ccccc4)nc3-c3cccnc3)CC2)cc1,inconclusive: -3.32%,–
O=C(NCCc1cccc(Cl)c1)c1ccc2c(c1)OCO2,inconclusive: -17.6%,–
COc1cccc(NS(=O)(=O)c2ccc(OC)c(OC)c2)c1,inconclusive: -2.91%,–
COc1ccc(C(F)(F)F)cc1N/C=C/c1nnnn1-c1ccc2ccccc2c1,inconclusive: 2.96%,–
C=CCNC(=O)/C(C#N)=C\c1cc(Cl)c(O)c(OCC)c1,inactive,–
Cc1cccc(NC(=S)N=Nc2c(O)[nH]c3ccccc23)c1,inconclusive: -13.5% [cytotoxic],–
Cc1ccc(SCC(=O)OCn2nnc3ccccc3c2=O)cc1C,inactive,–
CSc1nc2sc3c(c2c(=O)n1-c1ccccc1C)CCCC3,inconclusive: 17.2%,–
Cc1cccc(C)c1NC(=S)N=Nc1c(O)n(C)c2ccc(S(=O)(=O)N3CCOCC3)cc12,inactive,–
Cc1ccc(NC2=CC(=O)CC(c3ccc(Cl)cc3)C2)cc1 (centres undefined),inconclusive: 4.38%,–
Cc1ccc(/C=N/n2c(C3CCCCC3)n[nH]c2=S)cc1,inconclusive: -0.302%,–
COc1ccc(NC(=O)CN(c2ccccc2OC)S(=O)(=O)c2cccs2)cc1Cl,inconclusive: 0.0921%,–
COc1ccccc1Sc1nc(-c2ccccc2)ncc1OC,inactive,–
COc1cc(CNn2cn[nH]c2=S)cc(Cl)c1OCc1ccccc1,inactive,–
Cn1cnnc1SCC(=O)c1c(N)n(Cc2ccccc2)c(=O)n(C)c1=O,inactive,–
CCOc1c(Cl)cc(C(=O)Nc2ccccc2C(=O)O)cc1Cl,–,"inconclusive: 2.82 µM [falling, full curve, poor fit]"

# Random excerpt: 2 entries already listed
SMILES,"activity change, negative = inhibition",Potency
COC(=O)c1ccccc1Nc1ccccc1,inactive,–
O=C(Nc1ccc(N2CCN(C(=O)c3ccc(Cl)cc3)CC2)cc1)c1cc2ccccc2o1,inactive,–

# An excerpt of the results above, for reference:
SMILES,"activity change, negative = inhibition",Potency
Cn1cnnc1SCC(=O)c1c(N)n(Cc2ccccc2)c(=O)n(C)c1=O,inactive,–
CCOc1c(Cl)cc(C(=O)Nc2ccccc2C(=O)O)cc1Cl,–,"inconclusive: 2.82 µM [falling, full curve, poor fit]"

# (continued)

SMILES,"activity change, negative = inhibition",Potency
Cc1ccc2cc3c(NC(=O)CC(C)C)nn(C)c3nc2c1,inconclusive: 3.12%,–
CC(C)(C)C(=O)N1CCN(c2nc3ccc(Br)cc3s2)CC1,inconclusive: 11.9%,–
O=C(Nc1sc(-c2ccccc2)cc1C(=O)O)c1ccccc1,–,"inconclusive: 35.5 µM [rising, single point]"
Clc1ccc(N/N=C/c2ccncc2)cc1Cl,inconclusive: 11.1%,–
CCOC(=O)N1CCN(C(=O)CSc2ccc(-c3cccnc3)nn2)CC1,inactive,–
O=C(c1ccc(-c2ccc([N+](=O)[O-])cc2Cl)o1)N1CCOCC1,inactive,–
CC(=O)Nc1ccc(NC(=O)c2ccc([N+](=O)[O-])cc2Cl)cc1,inactive,–
CCOC(=O)c1ccccc1Oc1c(F)c(F)nc(NCCO)c1F,inactive,–
CC(=O)Nc1ccc(C(=O)OCc2ccc(Cl)c(Cl)c2)cc1,inconclusive: 11.4%,–
COc1cc(CNCCSc2nnnn2C)cc(Br)c1OCc1ccccc1,inconclusive: -6.14%,–
Cc1cc2c(cc1S(=O)(=O)N1CCN(c3ccc(Cl)cc3)CC1)OCCN2C,inconclusive: 5.61%,–
CCCCC(=O)NNC(=S)NC(=O)c1cccc([N+](=O)[O-])c1,inactive,–
CC1CCC2(CC1)NC(=O)N(CC(=O)c1ccc(CNC(=O)C(C)(C)C)s1)C2=O (centres undefined),inactive,–
COc1ccccc1NC(=O)Nc1nn(C)c2cccc(OC)c12,–,"inconclusive: 20 µM [falling, partial curve, poor fit]"
Cc1c(NC(=O)C(C)OC(=O)c2ccc(NC(=O)CC#N)cc2)c(=O)n(-c2ccccc2)n1C (centres undefined),inactive,–
COc1ccc(Cc2nnc(SCC(=O)c3ccccc3)o2)cc1,inactive,–
COc1ccc2nc(SCC(=O)Nc3c(C)cc(C)cc3C)[nH]c2c1,–,"inconclusive: 11.2 µM [falling, partial curve]"
CCOc1cc(/C=C2\SC(=N)N(c3nccs3)C2=O)ccc1OCCN1CCOCC1,inconclusive: -0.0467%,–
CCC(=O)N(Cc1cc2cc(OC)ccc2[nH]c1=O)c1ccc(C)cc1,inactive,–
CCCCn1c(NCc2ccccc2O)nc2ccccc21,inconclusive: -9.66%,–
CNC(=O)/C(C#N)=C/c1ccc(-c2ccc(OC)cc2[N+](=O)[O-])o1,inconclusive: -1.59%,–
O=C(Nc1cc(C(F)(F)F)ccc1Cl)c1cccnc1,inconclusive: 9.41%,–
CCN(Cc1nc2ccccc2c(=O)[nH]1)C(=O)C1CC(=O)N(c2cccc3ccccc23)C1 (centres undefined),–,"inconclusive: 25.9 µM [rising, partial curve, poor fit]"
COC(=O)Cc1c(C)nc2nc(-c3ccco3)[nH]n2c1=O,–,"inconclusive: 20.6 µM [falling, partial curve]"
O=C(CSc1nnc2c3ccccc3c3ccccc3c2n1)Nc1ccccc1F,–,"inconclusive: 4.47 µM [falling, partial curve, poor fit]"
CC(=O)C1=C(C)NC(SCC(=O)c2cc(Cl)ccc2Cl)=C(C#N)C1c1ccco1 (centres undefined),inconclusive: -12.3%,–
COc1ccc(NC(=O)CSc2nc(=O)n(CCN(C)C)c3c2CCCC3)cc1,inactive,–
